Source: the supplement of paper PMC12067093, “Discovery and optimisation of a covalent ligand for TRIM25 and its application to targeted protein ubiquitination” (Chemical Science, 2025)
The other results are listed elsewhere or left out.

Sequences of proteins named here, by UniProt entry; tags and fusion partners are left off. A change or cut given only in a name is not applied to a line headed by its entry.
UniProt Q9BY42: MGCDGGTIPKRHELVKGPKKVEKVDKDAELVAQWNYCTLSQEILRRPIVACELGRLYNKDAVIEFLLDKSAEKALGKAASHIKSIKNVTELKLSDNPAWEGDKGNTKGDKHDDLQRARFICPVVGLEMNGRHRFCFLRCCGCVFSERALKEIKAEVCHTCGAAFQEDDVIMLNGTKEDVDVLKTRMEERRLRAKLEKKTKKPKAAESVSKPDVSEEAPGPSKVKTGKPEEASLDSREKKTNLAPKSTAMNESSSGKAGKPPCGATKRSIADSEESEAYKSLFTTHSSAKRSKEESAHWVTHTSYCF
UniProt Q6PCB5: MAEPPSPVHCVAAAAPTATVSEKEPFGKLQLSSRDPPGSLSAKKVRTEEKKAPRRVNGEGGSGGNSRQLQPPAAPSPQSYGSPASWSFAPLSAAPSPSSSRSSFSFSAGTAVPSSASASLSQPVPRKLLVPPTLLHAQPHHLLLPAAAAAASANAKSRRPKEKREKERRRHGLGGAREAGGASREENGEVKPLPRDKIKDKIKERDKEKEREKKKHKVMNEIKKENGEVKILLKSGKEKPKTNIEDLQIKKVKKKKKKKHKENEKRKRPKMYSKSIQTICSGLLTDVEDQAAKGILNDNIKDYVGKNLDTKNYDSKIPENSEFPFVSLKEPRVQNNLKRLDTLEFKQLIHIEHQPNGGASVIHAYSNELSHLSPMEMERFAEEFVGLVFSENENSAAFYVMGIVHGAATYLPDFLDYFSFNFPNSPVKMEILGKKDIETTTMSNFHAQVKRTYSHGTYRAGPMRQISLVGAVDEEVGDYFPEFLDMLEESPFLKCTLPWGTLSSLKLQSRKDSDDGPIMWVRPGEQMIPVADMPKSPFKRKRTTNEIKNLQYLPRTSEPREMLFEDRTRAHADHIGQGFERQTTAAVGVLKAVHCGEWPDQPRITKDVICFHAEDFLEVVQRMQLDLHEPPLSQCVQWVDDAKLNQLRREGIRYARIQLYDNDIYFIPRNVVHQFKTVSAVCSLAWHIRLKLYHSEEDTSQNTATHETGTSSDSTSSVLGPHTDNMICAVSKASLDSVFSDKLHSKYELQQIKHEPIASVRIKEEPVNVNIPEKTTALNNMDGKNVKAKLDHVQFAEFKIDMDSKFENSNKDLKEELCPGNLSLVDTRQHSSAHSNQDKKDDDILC
UniProt Q8IZ73: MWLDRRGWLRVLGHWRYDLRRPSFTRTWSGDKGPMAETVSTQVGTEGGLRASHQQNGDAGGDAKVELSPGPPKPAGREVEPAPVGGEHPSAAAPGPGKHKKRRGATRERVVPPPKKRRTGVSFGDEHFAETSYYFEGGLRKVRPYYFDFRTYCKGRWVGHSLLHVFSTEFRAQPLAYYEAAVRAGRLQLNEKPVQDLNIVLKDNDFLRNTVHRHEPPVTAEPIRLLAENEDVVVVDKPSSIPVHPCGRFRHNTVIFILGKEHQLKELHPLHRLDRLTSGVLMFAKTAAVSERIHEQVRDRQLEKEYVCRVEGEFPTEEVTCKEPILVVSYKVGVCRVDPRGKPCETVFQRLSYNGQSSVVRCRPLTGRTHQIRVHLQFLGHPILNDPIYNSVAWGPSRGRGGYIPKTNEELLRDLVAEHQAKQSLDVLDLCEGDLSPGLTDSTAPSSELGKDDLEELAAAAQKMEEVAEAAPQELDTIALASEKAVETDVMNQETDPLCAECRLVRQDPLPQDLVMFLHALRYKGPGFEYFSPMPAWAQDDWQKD
UniProt Q9BVN2: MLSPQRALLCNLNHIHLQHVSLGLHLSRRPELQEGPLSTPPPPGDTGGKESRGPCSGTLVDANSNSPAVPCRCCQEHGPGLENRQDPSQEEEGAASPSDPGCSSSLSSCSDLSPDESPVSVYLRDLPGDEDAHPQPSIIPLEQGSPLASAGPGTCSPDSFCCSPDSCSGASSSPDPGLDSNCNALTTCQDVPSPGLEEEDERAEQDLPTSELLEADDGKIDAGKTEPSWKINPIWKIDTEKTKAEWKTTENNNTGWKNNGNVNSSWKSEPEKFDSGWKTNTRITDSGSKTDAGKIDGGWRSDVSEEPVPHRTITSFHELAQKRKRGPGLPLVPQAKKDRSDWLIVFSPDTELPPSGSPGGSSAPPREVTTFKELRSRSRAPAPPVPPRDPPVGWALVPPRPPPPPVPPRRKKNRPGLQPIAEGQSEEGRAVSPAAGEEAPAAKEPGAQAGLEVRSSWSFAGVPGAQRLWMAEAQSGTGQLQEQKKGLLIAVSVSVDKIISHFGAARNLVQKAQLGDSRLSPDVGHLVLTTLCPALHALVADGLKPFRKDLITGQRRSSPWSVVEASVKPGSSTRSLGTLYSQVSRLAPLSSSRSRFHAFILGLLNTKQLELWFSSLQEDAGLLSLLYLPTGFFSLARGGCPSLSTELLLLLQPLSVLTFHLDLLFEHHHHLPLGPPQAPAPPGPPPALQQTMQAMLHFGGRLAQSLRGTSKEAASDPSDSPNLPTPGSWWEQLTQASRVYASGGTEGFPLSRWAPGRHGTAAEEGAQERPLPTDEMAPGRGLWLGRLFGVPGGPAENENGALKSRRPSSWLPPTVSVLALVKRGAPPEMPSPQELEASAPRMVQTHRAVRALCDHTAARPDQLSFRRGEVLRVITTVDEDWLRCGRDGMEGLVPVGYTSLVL
UniProt Q96P16: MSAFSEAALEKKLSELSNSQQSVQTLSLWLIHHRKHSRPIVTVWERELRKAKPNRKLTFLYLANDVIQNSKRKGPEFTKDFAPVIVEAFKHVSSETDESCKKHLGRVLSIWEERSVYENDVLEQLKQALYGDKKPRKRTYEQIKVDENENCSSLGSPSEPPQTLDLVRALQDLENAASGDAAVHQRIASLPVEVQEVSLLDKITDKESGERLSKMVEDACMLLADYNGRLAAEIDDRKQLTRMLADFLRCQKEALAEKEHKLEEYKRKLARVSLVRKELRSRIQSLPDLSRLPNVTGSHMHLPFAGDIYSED
UniProt P31350, whole entry, looked up: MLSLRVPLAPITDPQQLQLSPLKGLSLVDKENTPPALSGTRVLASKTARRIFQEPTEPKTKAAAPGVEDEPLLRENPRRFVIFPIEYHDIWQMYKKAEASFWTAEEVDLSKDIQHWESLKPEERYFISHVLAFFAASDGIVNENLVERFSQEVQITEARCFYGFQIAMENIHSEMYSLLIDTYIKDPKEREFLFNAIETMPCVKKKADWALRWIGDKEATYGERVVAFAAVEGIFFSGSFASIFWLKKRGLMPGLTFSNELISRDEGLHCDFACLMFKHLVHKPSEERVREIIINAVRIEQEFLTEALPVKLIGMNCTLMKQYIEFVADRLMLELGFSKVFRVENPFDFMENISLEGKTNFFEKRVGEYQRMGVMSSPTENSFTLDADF
UniProt Q96T51: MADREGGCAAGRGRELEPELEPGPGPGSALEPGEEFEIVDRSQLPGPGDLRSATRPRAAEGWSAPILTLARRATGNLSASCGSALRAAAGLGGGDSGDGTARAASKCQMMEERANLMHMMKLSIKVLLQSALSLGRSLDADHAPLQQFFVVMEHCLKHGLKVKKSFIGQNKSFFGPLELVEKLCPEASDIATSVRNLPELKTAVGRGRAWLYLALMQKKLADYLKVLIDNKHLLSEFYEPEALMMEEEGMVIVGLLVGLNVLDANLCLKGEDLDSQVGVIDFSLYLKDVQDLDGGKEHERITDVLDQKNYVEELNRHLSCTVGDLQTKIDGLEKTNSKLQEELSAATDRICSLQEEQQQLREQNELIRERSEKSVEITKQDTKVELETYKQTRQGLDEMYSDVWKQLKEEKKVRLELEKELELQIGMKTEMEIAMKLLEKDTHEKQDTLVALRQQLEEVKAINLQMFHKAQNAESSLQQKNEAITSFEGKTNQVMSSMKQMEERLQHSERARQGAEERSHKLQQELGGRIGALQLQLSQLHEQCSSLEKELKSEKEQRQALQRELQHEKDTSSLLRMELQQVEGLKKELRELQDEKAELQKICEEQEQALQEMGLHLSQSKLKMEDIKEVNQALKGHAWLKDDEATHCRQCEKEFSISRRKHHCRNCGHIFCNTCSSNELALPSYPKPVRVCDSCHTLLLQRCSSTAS
UniProt Q5JTH9: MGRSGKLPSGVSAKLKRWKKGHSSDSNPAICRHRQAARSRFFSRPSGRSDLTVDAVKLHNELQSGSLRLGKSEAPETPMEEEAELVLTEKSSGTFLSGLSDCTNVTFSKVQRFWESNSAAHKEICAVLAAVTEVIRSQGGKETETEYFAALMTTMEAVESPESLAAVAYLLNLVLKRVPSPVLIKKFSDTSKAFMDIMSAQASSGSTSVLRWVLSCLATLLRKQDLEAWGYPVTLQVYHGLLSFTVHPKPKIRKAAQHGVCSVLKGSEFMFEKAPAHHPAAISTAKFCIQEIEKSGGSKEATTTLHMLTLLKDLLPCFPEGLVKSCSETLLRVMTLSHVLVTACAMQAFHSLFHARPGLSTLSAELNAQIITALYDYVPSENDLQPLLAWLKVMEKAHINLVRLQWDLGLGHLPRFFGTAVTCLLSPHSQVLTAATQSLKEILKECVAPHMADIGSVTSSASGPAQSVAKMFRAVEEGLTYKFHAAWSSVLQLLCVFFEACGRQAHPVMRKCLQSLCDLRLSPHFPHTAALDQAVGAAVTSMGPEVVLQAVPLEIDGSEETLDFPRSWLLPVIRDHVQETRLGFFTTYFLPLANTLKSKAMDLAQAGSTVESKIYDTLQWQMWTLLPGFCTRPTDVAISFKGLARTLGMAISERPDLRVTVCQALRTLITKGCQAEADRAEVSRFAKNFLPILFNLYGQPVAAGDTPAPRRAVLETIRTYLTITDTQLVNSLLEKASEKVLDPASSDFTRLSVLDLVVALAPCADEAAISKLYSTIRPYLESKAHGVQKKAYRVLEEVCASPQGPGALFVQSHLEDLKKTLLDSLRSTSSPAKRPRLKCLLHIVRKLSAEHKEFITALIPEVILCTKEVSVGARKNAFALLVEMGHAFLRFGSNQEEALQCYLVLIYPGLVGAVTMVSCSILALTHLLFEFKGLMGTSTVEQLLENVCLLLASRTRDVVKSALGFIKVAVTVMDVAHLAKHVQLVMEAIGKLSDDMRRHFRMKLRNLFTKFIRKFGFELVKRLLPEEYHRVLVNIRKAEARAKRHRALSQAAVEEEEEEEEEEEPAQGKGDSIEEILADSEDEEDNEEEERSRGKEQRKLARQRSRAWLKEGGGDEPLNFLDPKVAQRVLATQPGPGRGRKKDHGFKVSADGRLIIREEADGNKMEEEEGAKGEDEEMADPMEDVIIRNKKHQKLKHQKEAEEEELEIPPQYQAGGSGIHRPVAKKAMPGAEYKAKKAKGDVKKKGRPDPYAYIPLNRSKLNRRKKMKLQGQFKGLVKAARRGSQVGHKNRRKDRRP
UniProt Q9Y265, whole entry, looked up: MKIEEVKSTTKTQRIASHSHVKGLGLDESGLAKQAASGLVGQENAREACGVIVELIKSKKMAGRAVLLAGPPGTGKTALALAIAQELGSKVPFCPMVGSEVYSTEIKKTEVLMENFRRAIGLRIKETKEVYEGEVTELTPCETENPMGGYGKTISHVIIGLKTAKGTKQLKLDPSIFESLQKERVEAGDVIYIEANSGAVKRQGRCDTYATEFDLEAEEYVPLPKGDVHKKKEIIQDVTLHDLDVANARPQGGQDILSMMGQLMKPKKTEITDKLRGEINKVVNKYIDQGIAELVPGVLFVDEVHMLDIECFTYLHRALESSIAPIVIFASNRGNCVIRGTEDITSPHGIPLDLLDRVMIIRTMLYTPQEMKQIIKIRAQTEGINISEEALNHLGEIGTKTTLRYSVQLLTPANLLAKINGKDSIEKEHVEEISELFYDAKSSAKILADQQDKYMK
UniProt P23921: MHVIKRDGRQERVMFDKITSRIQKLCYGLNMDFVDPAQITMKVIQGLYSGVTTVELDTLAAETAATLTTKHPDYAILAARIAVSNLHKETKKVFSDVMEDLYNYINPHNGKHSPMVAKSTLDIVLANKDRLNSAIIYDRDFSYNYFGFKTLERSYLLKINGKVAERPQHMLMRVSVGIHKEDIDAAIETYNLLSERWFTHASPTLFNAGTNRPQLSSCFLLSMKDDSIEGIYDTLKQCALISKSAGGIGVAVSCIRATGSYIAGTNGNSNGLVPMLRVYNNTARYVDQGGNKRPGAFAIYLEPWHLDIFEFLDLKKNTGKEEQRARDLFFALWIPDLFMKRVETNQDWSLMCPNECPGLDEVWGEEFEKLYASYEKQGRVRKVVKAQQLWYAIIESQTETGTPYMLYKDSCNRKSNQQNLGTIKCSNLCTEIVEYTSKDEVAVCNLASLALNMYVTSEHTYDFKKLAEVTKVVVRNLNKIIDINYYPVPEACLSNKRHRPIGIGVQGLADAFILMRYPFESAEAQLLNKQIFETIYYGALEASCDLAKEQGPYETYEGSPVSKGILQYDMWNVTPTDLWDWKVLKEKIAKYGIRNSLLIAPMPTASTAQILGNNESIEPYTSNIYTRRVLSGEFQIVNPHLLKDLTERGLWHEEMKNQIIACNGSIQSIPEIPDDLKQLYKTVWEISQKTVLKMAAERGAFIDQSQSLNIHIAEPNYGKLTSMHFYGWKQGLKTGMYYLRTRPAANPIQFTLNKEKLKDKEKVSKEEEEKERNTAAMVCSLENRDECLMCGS

Compound: CC1Cc2ccccc2N1C(=O)C1CCCN(C1)C(=O)CCl (mixture of isomers) [TRIM25 ligand 11 (diastereomer mixture)]
Test: probe-labelled cysteine peptide fold change vs DMSO (competition) (log2 fold change); higher = less target engagement (more negative = stronger competition)
Conditions: THP-1, incubation time: 4 h
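Also: competitive chemoproteomic profiling in live THP-1 cells with an iodoacetamide desthiobiotin (IA-DTB) probe, comparing probe-labelled peptide intensities in compound-treated cells against DMSO-treated controls.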

With “RRP15_Q9Y3B9_146_RLEWEMMCR (UniProt Q9Y3B9)” the “probe-labelled cysteine peptide fold change” value (10 µM) was -0.136 and the “probe-labelled cysteine peptide fold change” value (50 µM) was -0.197.
For “RPRD1B_Q9NQG5_234_TVDEACLLLAEYNGR (UniProt Q9NQG5)”, the “probe-labelled cysteine peptide fold change” value (10 µM) was -0.0354 and the “probe-labelled cysteine peptide fold change” value (50 µM) was 0.0947.
With “RSL24D1_Q9UHA3_6_CYFCSGPIYPGHGMMFVR (UniProt Q9UHA3)” the “probe-labelled cysteine peptide fold change” value (10 µM) was 0.349 and the “probe-labelled cysteine peptide fold change” value (50 µM) was 0.0357.
In the case of “SAE1_Q9UBE0_342_GNGIVECLGPK (UniProt Q9UBE0)”, the “probe-labelled cysteine peptide fold change” value (10 µM) is reported as 0.00974 and the “probe-labelled cysteine peptide fold change” value (50 µM) is reported as -0.128.
“RPS27A_P62979_126_ECPSDECGAGVFMASHFDR (UniProt P62979)” was tested, and the “probe-labelled cysteine peptide fold change” value (10 µM) was -0.128 and the “probe-labelled cysteine peptide fold change” value (50 µM) was -0.12.
With “RTFDC1_Q9BY42_262_AGKPPCGATK (UniProt Q9BY42)” the “probe-labelled cysteine peptide fold change” value (10 µM) was -0.0213 and the “probe-labelled cysteine peptide fold change” value (50 µM) was -0.1.
For “S100A8_P05109_42_LLETECPQYIR (UniProt P05109)”, the “probe-labelled cysteine peptide fold change” value (10 µM) was -0.0697 and the “probe-labelled cysteine peptide fold change” value (50 µM) was -0.229.
In the case of “RPS6KA1_Q15418_432_ETIGVGSYSECKR (UniProt Q15418)”, the “probe-labelled cysteine peptide fold change” value (10 µM) is reported as 0.185 and the “probe-labelled cysteine peptide fold change” value (50 µM) is reported as -0.833.
With “RSBN1L_Q6PCB5_10_AEPPSPVHCVAAAAPTATVSEK (UniProt Q6PCB5)” the “probe-labelled cysteine peptide fold change” value (10 µM) was 0.0426 and the “probe-labelled cysteine peptide fold change” value (50 µM) was 0.0361.
In the case of “RPRD2_Q5VT52_903_ALLDSSENCDR (UniProt Q5VT52)”, the “probe-labelled cysteine peptide fold change” value (10 µM) is reported as -0.0766 and the “probe-labelled cysteine peptide fold change” value (50 µM) is reported as -0.214.
For “RTN4_Q9NQC3_1101_YSNSALGHVNCTIK (UniProt Q9NQC3)”, the “probe-labelled cysteine peptide fold change” value (10 µM) was 0.00619 and the “probe-labelled cysteine peptide fold change” value (50 µM) was -0.215.
For “RPUSD2_Q8IZ73_499+502_AVETDVMNQETDPLCAECR (UniProt Q8IZ73)”, the “probe-labelled cysteine peptide fold change” value (10 µM) was -0.226 and the “probe-labelled cysteine peptide fold change” value (50 µM) was -0.093.
For “RPUSD2_Q8IZ73_321_VEGEFPTEEVTCK (UniProt Q8IZ73)”, the “probe-labelled cysteine peptide fold change” value (10 µM) was 0.159 and the “probe-labelled cysteine peptide fold change” value (50 µM) was 0.152.
In the case of “RPS3_P23396_119_ACYGVLR (UniProt P23396)”, the “probe-labelled cysteine peptide fold change” value (10 µM) is reported as 0.152 and the “probe-labelled cysteine peptide fold change” value (50 µM) is reported as 0.116.
With “RUSC1_Q9BVN2_532_LSPDVGHLVLTTLCPALHALVADGLK (UniProt Q9BVN2)” the “probe-labelled cysteine peptide fold change” value (10 µM) was -0.131 and the “probe-labelled cysteine peptide fold change” value (50 µM) was -0.173.
“RPS8_P62241_100_NCIVLIDSTPYR (UniProt P62241)” was tested, and the “probe-labelled cysteine peptide fold change” value (10 µM) was 0.097 and the “probe-labelled cysteine peptide fold change” value (50 µM) was -0.0705.
For “RPS11_P62280_60_CPFTGNVSIR (UniProt P62280)”, the “probe-labelled cysteine peptide fold change” value (10 µM) was -0.0697 and the “probe-labelled cysteine peptide fold change” value (50 µM) was -0.146.
For “RSL1D1_O76021_211_SGSCSAIR (UniProt O76021)”, the “probe-labelled cysteine peptide fold change” value (10 µM) was 0.164 and the “probe-labelled cysteine peptide fold change” value (50 µM) was 0.175.
With “RPRD1A_Q96P16_151_VDENENCSSLGSPSEPPQTLDLVR (UniProt Q96P16)” the “probe-labelled cysteine peptide fold change” value (10 µM) was -0.217 and the “probe-labelled cysteine peptide fold change” value (50 µM) was -0.184.
In the case of “RPS29_P62273_39_KYGLNMCR (UniProt P62273)”, the “probe-labelled cysteine peptide fold change” value (10 µM) is reported as -0.16 and the “probe-labelled cysteine peptide fold change” value (50 µM) is reported as -0.114.
For “RXRB_P28702_191_GLHCPPPPGGPGAGK (UniProt P28702)”, the “probe-labelled cysteine peptide fold change” value (10 µM) was 0.0366 and the “probe-labelled cysteine peptide fold change” value (50 µM) was 0.0822.
For “RRM2_P31350_270+274_DEGLHCDFACLMFK (UniProt P31350)”, the “probe-labelled cysteine peptide fold change” value (10 µM) was 0.242 and the “probe-labelled cysteine peptide fold change” value (50 µM) was 0.117.
With “RPS5_P46782_155_VNQAIWLLCTGAR (UniProt P46782)” the “probe-labelled cysteine peptide fold change” value (10 µM) was 0.00589 and the “probe-labelled cysteine peptide fold change” value (50 µM) was 0.118.
In the case of “RPS11_P62280_131_DVQIGDIVTVGECRPLSK (UniProt P62280)”, the “probe-labelled cysteine peptide fold change” value (10 µM) is reported as -0.0822 and the “probe-labelled cysteine peptide fold change” value (50 µM) is reported as -0.067.
“SACM1L_Q9NTJ5_199_FALPVLHGFITMHSCSINGK (UniProt Q9NTJ5)” was tested, and the “probe-labelled cysteine peptide fold change” value (10 µM) was -0.0118 and the “probe-labelled cysteine peptide fold change” value (50 µM) was 0.173.
In the case of “SAMHD1_Q9Y3Z3_177_QLGGGYYVFPGASHNRFEHSLGVGYLAGCLVHALGEK (UniProt Q9Y3Z3)”, the “probe-labelled cysteine peptide fold change” value (10 µM) is reported as -0.178 and the “probe-labelled cysteine peptide fold change” value (50 µM) is reported as -0.0034.
With “RUFY1_Q96T51_351_ICSLQEEQQQLREQNELIR (UniProt Q96T51)” the “probe-labelled cysteine peptide fold change” value (10 µM) was -0.409 and the “probe-labelled cysteine peptide fold change” value (50 µM) was -0.465.
For “RRP12_Q5JTH9_799_VLEEVCASPQGPGALFVQSHLEDLKK (UniProt Q5JTH9)”, the “probe-labelled cysteine peptide fold change” value (10 µM) was -0.0461 and the “probe-labelled cysteine peptide fold change” value (50 µM) was 0.00477.
For “RUVBL1_Q9Y265_206_CDTYATEFDLEAEEYVPLPK (UniProt Q9Y265)”, the “probe-labelled cysteine peptide fold change” value (10 µM) was -0.0333 and the “probe-labelled cysteine peptide fold change” value (50 µM) was 0.0616.
In the case of “RUVBL1_Q9Y265_49_EACGVIVELIK (UniProt Q9Y265)”, the “probe-labelled cysteine peptide fold change” value (10 µM) is reported as -0.0508 and the “probe-labelled cysteine peptide fold change” value (50 µM) is reported as -0.0596.
With “RRAGA_Q7L523_157+159_LSRPLECACFR (UniProt Q7L523)” the “probe-labelled cysteine peptide fold change” value (10 µM) was 0.149 and the “probe-labelled cysteine peptide fold change” value (50 µM) was 0.397.
For “RRP8_O43159_320_QRPASLVVADFGCGDCR (UniProt O43159)”, the “probe-labelled cysteine peptide fold change” value (10 µM) was 0.0522 and the “probe-labelled cysteine peptide fold change” value (50 µM) was 0.0178.
In the case of “RRM1_P23921_779_NTAAMVCSLENR (UniProt P23921)”, the “probe-labelled cysteine peptide fold change” value (10 µM) is reported as 0.35 and the “probe-labelled cysteine peptide fold change” value (50 µM) is reported as -0.0496.
In the case of “RTN4IP1_Q8WWV3_236_AWDAHVTAVCSQDASELVR (UniProt Q8WWV3)”, the “probe-labelled cysteine peptide fold change” value (10 µM) is reported as 0.0198 and the “probe-labelled cysteine peptide fold change” value (50 µM) is reported as -0.333.
“RRM2_P31350_317_LIGMNCTLMK (UniProt P31350)” was tested, and the “probe-labelled cysteine peptide fold change” value (10 µM) was 0.18 and the “probe-labelled cysteine peptide fold change” value (50 µM) was 0.281.
For “RWDD2B_P57060_105_MAMFSLACILPFK (UniProt P57060)”, the “probe-labelled cysteine peptide fold change” value (10 µM) was -0.487 and the “probe-labelled cysteine peptide fold change” value (50 µM) was 0.0588.
In the case of “RRP12_Q5JTH9_102_SSGTFLSGLSDCTNVTFSK (UniProt Q5JTH9)”, the “probe-labelled cysteine peptide fold change” value (10 µM) is reported as 0.0888 and the “probe-labelled cysteine peptide fold change” value (50 µM) is reported as 0.0733.
In the case of “RUNDC1_Q96C34_311_TGNGCSR (UniProt Q96C34)”, the “probe-labelled cysteine peptide fold change” value (10 µM) is reported as 0.383 and the “probe-labelled cysteine peptide fold change” value (50 µM) is reported as 0.21.
In the case of “RPS20_P60866_36_VCADLIR (UniProt P60866)”, the “probe-labelled cysteine peptide fold change” value (10 µM) is reported as -0.0632 and the “probe-labelled cysteine peptide fold change” value (50 µM) is reported as -0.0631.
